In article PMC10163288:
The other results are listed elsewhere or left out.

B1: il10ra_site1_sap_21_mot_HHH_b2_02736_000000092_0001_22_38_H_._HHH_b1_00790_0001_0000300014_0000001_0_0001_af2pred_0001 (protein)
chain: SSSSSEEELRERIEELLEEAKHLEDPREVFELLVEAFLLALKAGDPELEELVREAAKELASSSSS
B2: il10ra_site1_normal_mot_HHH_b1_05056_000000217_0001_1_20_H_._HHH_b1_02171_0001_0000600040_0000001_0 (protein)
chain: SSSSSSSDYEEEVEELLEEAQRVSEEEASELLAKAVQLAFENSNEELLKLVWEVVKEASSSSSSS
B3: il10ra_site1_sap_21_mot_HHH_b2_03220_af2_000000223_0001_23_40_H_._HHH_b2_03430_af2_0001_0000100005_0000001_0_0001 (protein)
chain: SSSSDEELEEFVEELVEKFNLDETLERNLRLLVESLEELGFSEEEIKKLLEKSAEQIARQQSSSS
B4: il10ra_site1_sap_23_mot_HHH_b1_02492_000000051_0001_1_21_H_._HHH_b1_07288_af2_0001_0000200014_0000001_0_0001 (protein)
chain: SSSSDAAHRVYELLRRAIELLRDGNPEEAREVLEEAQELAEEGNNRVMRVQIRFLEKQIDSSSSS
B5: il10ra_site1_sap_19_mot_HHH_b1_06914_000000280_0001_1_18_H_._HHH_b1_04080_0001_0000200018_0000001_0_0001_af2pred_0001 (protein)
chain: SSSSSSDEEEEVRELLEEAKHVDDEEEAFKVVAEAARLALELQNQELLQLALKLAEELSSSSSSS
B6: il10ra_site1_sap_28_mot_HHH_b2_06480_af2_000000075_0001_1_18_H_._HHH_b1_07267_af2_0001_0000100003_0000001_0_0001_af2pred_dldesign_0_af2pred (protein)
chain: SSSSSPEREALQKALDYLEWMIEAGDREGAARALANLTDLARRLNDAEALARLAELRARLESSSS
B7: il10ra_site1_normal_mot_HHH_b2_00033_000000036_0001_41_54_H_._HHH_b1_00748_0001_0000600035_0000001_0 (protein)
chain: SSSSDVAELAAAAARLAIRLNNPELFQELWELAKRIVEEGDPRLREELEEIVRELEELISSSSSS
B8: il10ra_site1_normal_mot_HHH_b2_06142_af2_000000101_0001_1_18_H_._HHH_b1_03808_0002_0000700025_0000001_0 (protein)
chain: SSSSDEEVEELLKLLAQLAIRNPEFAEELQQVLVRVHNLLHRGNPEEARRLAEEAIERVEKSSSS
B9: il10ra_site1_sap_20_mot_8756ee2cf497b5429c717dfc0c0bcfd6_0001_000000186_0001_1_13_H_._HHH_b1_04711_0001_0000300015_0000001_0_0001_af2pred_dldesign_0_af2pred (protein)
chain: SSSSSSPERLQALLDRIEELLAAGRLGEAIKLLKEAVELAAELDDQEALQRARDLAGRLVSSSSS
B10: il10ra_site1_normal_mot_HHH_b1_05789_000000283_0001_1_15_H_._ems_3hM_213_0001_0000200005_0000001_0_af2pred_0001 (protein)
chain: PEIEELAEEAIELAEELKEKIQDPKLRHAVEAALRLLERALENRDERALEHAIRALELIAKLASS

target: il10ra, Q13651; experiment: yeast display titration

Apparent Kd, inactive:
B1 no binding seen
B2 no binding seen
B3 no binding seen
B4 no binding seen
B5 no binding seen
B6 no binding seen
B7 no binding seen
B8 no binding seen
B9 no binding seen
B10 no binding seen
